Experimental data as given in article PMC10778711.
No constants are given. Whether binding was seen depends on the method and setting. In cells and extracts the contact can be indirect. Some binding calls cover weakened binding; strength is not graded here. Values belong to the substance of their own block, whether it stands above or below them.

Protein sequences, listed by entry. Tags and fused reporters are not part of them.
UniProt P49792: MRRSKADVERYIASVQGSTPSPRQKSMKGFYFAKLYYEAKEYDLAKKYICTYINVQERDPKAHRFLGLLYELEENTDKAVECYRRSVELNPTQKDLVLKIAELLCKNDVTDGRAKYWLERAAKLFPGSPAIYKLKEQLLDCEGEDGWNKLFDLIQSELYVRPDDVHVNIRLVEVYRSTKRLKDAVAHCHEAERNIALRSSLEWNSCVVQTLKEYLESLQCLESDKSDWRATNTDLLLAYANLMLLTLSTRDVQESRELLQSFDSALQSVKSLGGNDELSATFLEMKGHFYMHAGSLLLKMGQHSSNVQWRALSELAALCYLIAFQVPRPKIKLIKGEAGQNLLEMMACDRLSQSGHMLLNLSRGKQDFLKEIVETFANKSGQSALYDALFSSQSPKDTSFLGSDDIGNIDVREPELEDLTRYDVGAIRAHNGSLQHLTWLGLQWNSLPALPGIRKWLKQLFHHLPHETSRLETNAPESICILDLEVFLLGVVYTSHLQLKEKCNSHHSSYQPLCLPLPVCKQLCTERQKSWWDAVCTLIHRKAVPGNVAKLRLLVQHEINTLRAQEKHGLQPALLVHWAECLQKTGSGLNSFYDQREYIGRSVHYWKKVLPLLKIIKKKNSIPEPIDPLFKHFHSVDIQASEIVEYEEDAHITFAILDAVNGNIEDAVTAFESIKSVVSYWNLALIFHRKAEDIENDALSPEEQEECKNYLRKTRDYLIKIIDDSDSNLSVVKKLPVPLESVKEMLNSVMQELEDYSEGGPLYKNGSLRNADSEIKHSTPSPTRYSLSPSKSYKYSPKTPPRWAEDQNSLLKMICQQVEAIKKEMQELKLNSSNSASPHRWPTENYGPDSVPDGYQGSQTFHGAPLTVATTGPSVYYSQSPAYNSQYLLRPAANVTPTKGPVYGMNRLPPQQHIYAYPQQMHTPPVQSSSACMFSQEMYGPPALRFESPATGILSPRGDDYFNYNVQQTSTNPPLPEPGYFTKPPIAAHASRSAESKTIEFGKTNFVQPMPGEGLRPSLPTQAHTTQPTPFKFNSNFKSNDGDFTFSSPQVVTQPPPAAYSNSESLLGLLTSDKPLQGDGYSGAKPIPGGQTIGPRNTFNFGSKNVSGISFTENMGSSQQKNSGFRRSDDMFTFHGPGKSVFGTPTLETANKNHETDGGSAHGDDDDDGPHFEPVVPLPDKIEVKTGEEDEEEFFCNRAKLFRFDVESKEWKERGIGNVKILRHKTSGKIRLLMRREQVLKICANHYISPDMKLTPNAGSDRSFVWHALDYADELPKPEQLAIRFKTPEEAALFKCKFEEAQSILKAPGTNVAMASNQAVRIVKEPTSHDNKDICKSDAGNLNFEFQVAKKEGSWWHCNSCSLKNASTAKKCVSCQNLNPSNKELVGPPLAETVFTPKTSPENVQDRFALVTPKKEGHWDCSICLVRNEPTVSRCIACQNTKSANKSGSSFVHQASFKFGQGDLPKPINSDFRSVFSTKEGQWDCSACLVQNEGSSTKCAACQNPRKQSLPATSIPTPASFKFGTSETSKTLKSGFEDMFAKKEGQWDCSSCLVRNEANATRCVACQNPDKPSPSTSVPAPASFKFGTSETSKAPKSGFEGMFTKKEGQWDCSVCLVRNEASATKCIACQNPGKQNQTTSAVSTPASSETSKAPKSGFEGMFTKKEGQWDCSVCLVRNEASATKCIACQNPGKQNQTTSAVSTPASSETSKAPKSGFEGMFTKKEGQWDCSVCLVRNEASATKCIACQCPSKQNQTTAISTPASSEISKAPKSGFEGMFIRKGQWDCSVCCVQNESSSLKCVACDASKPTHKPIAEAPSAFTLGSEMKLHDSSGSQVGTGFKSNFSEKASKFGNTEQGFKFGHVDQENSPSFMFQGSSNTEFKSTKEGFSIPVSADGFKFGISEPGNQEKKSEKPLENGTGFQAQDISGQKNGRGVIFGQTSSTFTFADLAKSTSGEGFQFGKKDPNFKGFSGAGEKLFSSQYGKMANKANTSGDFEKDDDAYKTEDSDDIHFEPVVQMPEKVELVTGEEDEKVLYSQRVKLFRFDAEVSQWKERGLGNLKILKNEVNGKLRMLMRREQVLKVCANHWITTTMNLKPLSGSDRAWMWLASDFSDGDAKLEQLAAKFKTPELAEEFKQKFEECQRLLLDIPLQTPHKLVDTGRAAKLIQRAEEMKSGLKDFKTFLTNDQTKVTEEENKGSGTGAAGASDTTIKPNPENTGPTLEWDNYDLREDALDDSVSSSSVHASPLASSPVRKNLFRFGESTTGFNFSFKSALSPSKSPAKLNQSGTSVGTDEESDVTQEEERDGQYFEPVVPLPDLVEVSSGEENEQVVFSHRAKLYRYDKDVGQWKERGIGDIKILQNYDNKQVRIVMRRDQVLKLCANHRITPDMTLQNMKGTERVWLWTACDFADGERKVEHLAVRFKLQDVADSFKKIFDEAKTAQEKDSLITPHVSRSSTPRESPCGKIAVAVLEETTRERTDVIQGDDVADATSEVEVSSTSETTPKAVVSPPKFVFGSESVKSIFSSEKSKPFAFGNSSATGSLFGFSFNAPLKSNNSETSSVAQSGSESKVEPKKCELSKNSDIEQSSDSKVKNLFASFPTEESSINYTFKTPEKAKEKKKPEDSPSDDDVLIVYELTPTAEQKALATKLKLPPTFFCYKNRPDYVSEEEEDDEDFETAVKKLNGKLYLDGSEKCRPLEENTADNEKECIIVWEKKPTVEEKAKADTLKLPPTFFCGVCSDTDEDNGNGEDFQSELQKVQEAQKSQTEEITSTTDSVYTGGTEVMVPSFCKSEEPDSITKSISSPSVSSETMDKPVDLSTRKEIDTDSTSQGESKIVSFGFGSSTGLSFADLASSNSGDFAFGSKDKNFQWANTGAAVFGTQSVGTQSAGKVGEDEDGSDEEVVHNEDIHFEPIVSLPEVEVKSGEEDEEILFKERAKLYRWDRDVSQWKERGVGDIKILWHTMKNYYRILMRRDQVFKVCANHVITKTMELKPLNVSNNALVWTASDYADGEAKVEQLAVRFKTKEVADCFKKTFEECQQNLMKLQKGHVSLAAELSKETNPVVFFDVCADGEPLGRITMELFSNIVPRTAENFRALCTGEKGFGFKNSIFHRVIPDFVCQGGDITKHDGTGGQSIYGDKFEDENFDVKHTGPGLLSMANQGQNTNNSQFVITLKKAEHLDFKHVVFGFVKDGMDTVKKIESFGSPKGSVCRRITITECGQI
UniProt P42224: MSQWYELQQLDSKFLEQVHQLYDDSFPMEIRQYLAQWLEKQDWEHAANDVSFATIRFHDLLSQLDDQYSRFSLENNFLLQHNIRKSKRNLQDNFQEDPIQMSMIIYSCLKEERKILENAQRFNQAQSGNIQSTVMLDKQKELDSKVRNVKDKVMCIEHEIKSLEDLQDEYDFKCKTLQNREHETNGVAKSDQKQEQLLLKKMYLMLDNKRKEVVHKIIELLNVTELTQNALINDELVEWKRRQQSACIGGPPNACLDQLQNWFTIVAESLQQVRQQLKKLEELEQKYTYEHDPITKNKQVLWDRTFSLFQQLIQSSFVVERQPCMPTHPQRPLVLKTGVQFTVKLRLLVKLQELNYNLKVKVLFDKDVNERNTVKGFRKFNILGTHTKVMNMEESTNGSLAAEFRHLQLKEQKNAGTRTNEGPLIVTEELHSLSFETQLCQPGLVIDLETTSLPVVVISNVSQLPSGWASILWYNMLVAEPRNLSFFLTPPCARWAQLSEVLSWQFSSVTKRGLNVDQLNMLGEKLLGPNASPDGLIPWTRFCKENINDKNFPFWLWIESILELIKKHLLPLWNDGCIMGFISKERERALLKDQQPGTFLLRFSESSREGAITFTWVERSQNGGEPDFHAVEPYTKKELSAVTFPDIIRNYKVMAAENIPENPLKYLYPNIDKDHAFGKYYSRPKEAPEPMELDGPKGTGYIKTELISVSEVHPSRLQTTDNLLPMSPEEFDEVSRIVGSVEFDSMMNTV
UniProt P23458: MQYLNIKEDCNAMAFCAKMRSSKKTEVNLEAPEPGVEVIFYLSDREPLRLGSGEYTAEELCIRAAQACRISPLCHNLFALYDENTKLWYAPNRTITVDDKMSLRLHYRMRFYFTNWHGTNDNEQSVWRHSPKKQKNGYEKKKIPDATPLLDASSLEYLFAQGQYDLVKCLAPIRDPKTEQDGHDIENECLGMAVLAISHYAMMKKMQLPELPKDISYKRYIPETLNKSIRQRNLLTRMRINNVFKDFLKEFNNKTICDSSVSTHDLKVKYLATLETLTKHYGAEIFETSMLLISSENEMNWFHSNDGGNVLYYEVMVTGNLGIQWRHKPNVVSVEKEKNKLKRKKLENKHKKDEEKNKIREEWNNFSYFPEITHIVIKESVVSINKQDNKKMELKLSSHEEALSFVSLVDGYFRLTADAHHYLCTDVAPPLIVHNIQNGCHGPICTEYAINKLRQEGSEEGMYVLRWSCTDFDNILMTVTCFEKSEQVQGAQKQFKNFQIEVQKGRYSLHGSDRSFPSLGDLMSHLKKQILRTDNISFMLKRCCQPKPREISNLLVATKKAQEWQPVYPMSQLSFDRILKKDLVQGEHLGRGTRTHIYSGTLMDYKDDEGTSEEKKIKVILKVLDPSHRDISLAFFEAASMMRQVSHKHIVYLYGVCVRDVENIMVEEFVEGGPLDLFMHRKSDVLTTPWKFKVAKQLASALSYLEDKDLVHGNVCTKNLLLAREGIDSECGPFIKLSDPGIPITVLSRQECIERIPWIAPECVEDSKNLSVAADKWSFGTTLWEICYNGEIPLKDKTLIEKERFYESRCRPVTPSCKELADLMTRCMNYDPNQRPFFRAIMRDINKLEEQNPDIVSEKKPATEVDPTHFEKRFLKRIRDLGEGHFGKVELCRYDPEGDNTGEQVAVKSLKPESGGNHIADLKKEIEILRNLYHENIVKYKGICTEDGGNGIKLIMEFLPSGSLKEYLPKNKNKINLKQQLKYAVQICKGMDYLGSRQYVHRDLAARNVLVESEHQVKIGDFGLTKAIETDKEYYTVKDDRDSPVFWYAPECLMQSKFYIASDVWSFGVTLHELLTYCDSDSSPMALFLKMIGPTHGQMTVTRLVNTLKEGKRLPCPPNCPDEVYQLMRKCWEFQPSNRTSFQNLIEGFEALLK

Legend:
[1] = biological target: Ran Binding Protein 2 (RanBP2), endogenous in unmodified HEK293 cells (human (endogenous in HEK293)) (UniProt P49792); assay: co-IP; anti-RanBP2 immunoprecipitation (rabbit IgG as negative control) from lysates of HEK293 cells transfected with STAT1-Flag, blot for Flag
[2] = biological target: Flag tagged STAT1 (STAT1-Flag) (UniProt P42224); assay: co-IP; anti-Flag immunoprecipitation of STAT1-Flag from lysates of transfected HEK293 cells (unmodified or RanBP2-dE3-1), blot for endogenous RanBP2; with or without co-expressed His6-SUMO2; with or without 1000 U/mL IFN-α for 30 min
[3] = biological target: Janus kinase 1 (JAK1), endogenous in HEK293 cells (human (endogenous in HEK293)) (UniProt P23458); assay: co-IP; mouse anti-JAK1 immunoprecipitation (mouse IgG as negative control) from lysates of unmodified and RanBP2-dE3-1 HEK293 cells, mock treated or 1000 U/mL IFN-α for 30 min, blot for endogenous STAT1

- binding [1]: binds
Substance: Flag tagged STAT1 (STAT1-Flag) (from UniProt P42224 1-750)

- binding [2]: binds
Substance: Ran Binding Protein 2 (RanBP2), endogenous in unmodified HEK293 cells (from UniProt P49792 1-3224)

- binding [3]: binds
Substance: STAT1, endogenous in HEK293 cells (from UniProt P42224 1-750)
